# Where “and” joins values, the source holds several entries; their conditions need not be identical. Identical values can stand only once. The whole screen tested about 300,000 compounds, of which about 5,400 (1.8%) were called active. This list was built around the results that the source calls inconclusive (neither active nor inactive); the mix of calls is not that of the screen. The call rests on the fitted dose curve; tested in HEK293 cells. A potency beside an inconclusive call is a rough fit, not a confirmed value. Some structures have more than one record in an assay (separate samples or runs), and their calls can disagree.
# Assay: qHTS for inhibitors of binding or entry into cells for Marburg Virus
# Settings: Marburg virus pseudotyped entry inhibition, cell reporter; activity change, negative = inhibition: at 37.8 µM (top of the series) unless noted
# On the % scale 0 is the no-effect control and ±100 the full control effect; potency means the concentration at half of the fitted maximal effect.
SMILES,"activity change, negative = inhibition",Potency
O=C(CSc1ccc(-c2cccc([N+](=O)[O-])c2)nn1)N1CCCC1,inactive: 3.14% [at 46.1 µM],
COc1ccc(NC(=O)c2nc3nccc(C)n3n2)cn1,,"inconclusive: 2.82 µM [activator, partial curve, poor fit]"
COc1ccc(S(=O)(=O)N2CCCN(C)CC2)cc1,inactive: 0.163% [at 46.1 µM],
CCc1cccc(NC(=O)Nc2cccs2)c1,,"inconclusive: 2.24 µM [activator, partial curve, poor fit]"
Nc1nonc1-n1nnc(C(=O)N/N=C/c2ccc(Br)cc2)c1CSC1=NCCS1,inactive: 0%,
COc1ccc(N(C(=O)CCl)C(C(=O)NC2CCCCC2)c2cccnc2)cc1 (configuration not stated),,"inconclusive: 15.8 µM [inhibitor, single point]"
CCc1ccc(CNCc2ccc(F)cc2)cc1,,"inconclusive: 0.316 µM [activator, partial curve, poor fit]"
COc1ccc(/C=N/N2C(=O)c3ccccc3C2=O)cc1,,"inconclusive: 0.316 µM [activator, partial curve, poor fit]"
C#CCNC(=O)[C@H]1C=C(OC)C(=O)C[C@H](c2ccccc2)[C@H]1C,inactive: 7.64% [at 14.2 µM],
CC1CN(C(=O)CN2C(=O)NC3(CCCC3)C2=O)C(=Nc2cccc(S(=O)(=O)N(C)C)c2)S1 (configuration not stated),inactive: -14.3%,
O=C(COc1ccccc1)N1CCN(C(=O)c2ccco2)CC1,inactive: 22.8%,
Cc1nn(C(=O)Cn2ccc([N+](=O)[O-])n2)c(C)c1Br,,"inconclusive: 7.3 µM [activator, single point]"
CCOc1ccc(CN(CCO)CCO)cc1C(=O)OC,inactive: -0.974%,
Cc1ccc(C(=O)/C=C/N(C)C)o1,inactive: 5.55% [at 46.1 µM],
COC(=O)N[C@@H](c1cccc(F)c1)[C@@H](C)[N+](=O)[O-],,inactive
C=C(C)C(=O)C=CCCCC=CC(=O)OCC,inactive: 7.02% [at 14.2 µM],
COC(=O)c1sc(=S)sc1C(=O)OC,,"inconclusive: 0.103 µM [inhibitor, full curve, poor fit]"
CC(Cn1cncn1)NC(=O)c1cc(COc2cccc(C(F)(F)F)c2)on1 (configuration not stated),,"inconclusive: 4.47 µM [activator, partial curve, poor fit]"
CCOC(=O)C1=C(C)NC(C)=C(C(=O)OC)C1c1cccc([N+](=O)[O-])c1 (configuration not stated),,inactive and active: 2.51 µM
CCOc1ccc(CCNC(=O)COC(=O)c2cccc(S(=O)(=O)N3CCOCC3)c2)cc1OCC,inactive: -15.7% [at 46.1 µM],
Cc1cccc(COCC(Cc2ccccc2)N2CCN(C(=O)c3ccc(Cl)c(Cl)c3)CCC2=O)c1 (configuration not stated),inactive: -44.8%,
O=C1c2cccnc2C(O)N1Cc1cccs1 (configuration not stated),,"inconclusive: 0.164 µM [inhibitor, single point]"
